Our source for the binding values is paper PMC5289615.

Amino acid sequences for entries named in this document (tags omitted).
UniProt Q27497: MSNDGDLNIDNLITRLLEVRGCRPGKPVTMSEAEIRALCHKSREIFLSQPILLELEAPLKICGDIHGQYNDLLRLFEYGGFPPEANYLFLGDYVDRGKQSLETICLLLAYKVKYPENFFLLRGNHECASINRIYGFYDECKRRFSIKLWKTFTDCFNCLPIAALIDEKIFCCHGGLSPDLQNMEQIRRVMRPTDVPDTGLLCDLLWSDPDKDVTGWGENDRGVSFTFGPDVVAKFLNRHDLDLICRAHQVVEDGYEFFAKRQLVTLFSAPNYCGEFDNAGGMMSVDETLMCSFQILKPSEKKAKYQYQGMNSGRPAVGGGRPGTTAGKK
UniProt P48727: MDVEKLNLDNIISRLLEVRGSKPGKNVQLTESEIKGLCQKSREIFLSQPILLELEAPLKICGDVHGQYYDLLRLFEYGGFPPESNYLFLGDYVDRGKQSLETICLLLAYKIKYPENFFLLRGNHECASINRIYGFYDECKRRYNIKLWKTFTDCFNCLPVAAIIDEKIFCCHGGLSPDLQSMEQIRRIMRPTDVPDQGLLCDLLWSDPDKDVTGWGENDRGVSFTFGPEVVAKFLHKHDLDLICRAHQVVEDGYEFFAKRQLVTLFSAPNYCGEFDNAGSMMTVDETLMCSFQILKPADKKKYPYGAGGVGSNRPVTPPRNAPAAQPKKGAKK

No constants are given. Whether binding was seen depends on the method and setting. In cells and extracts the contact can be indirect. Binding can be weak; no strength is given.

For assay [1], the target named is PP1β^GSP-1 (C. elegans PP1 catalytic subunit, PP1β homolog) (C. elegans (endogenous in N2 worms)) (UniProt Q27497). As to the kind of experiment: co-IP; endogenous proteins immunoprecipitated from N2 whole worm extracts (1.6 mg total protein) with 10 ug antibody on Dynabeads Protein A, 4°C; washed in worm lysis buffer (50 mM HEPES pH 7.4, 1 mM EGTA, 1 mM MgCl2, 100 mM KCl, 10% glycerol, 0.05% NP-40); western blot; control IgG. (In general: A western blot detects proteins with antibodies after separation by electrophoresis.)

Assay [2] deals with I-2^SZY-2 (C. elegans homolog of inhibitor-2, regulator of protein phosphatase 1) (C. elegans (endogenous in N2 worms)) (UniProt Q9N537). The assay is described as above.

As to “I-2^SZY-2 (C. elegans homolog of inhibitor-2, regulator of protein phosphatase 1) (from UniProt Q9N537)”, in assay [1], the binding entry is “binds”. As for “PP1α^GSP-2 (C. elegans PP1 catalytic subunit, PP1α homolog) (from UniProt P48727 1-333) (enzyme)”, the binding entry in assay [2] is “binds”. Regarding “PP1β^GSP-1 (C. elegans PP1 catalytic subunit, PP1β homolog) (from UniProt Q27497 1-329) (enzyme)”, the binding result in assay [2] was “binds”.

B1: ZYG-1 (C. elegans homolog of Plk4) (enzyme, UniProt Q9GT24 1-706)
chain: MSGGKSGSRLSAYSHLKEIGKGGFGVVYAAQRENGEKVAIKRIDKKVPKNRVWTEIQTMKELKKSKYVVEFYEDFVEDGYTYIVMELCEGGSLQAYVREHGALDDATAVHVLRQLISAVSFMHRVNVIHRDLSAGNVFIKDSKKKKMTVKLGDFGLATTLGRGETTCTIVGTPGFIAPQVYDQEYTQSADVYSLGAVLYTMLTARNPPPKGLPPTCGMSPNAARLVEQMMDTDAKKRIPLTQIVLSEFMYENTNENAVIFSREHSRDGRRQRSREPVRSSRDDRSRDGRALIRSSSQPAHSGRAPLSNRPIHDRMPSTSSRGFDSERGRERDRDSGRGTVPPSREDRNRSQLWPIRMDRLEGQRVCTAGGRYIVELDTRCRFEVAAQGNFVKRILIVEVDEMVQTVYVHRIPDRTVRGRNGEEELITLTNNPFVYTSYSQMPKEVQNDYMRLQKMVAVTISGRVAKVTFRRPSQFPDAQAQLMENGDLRIKLPRSVIVRKMDNGEIFNCIDGIATQKQAVSGITLTKVNEVYKYLIRFEQCLNGMDRGMVCFPIVFSAGTNMVGSSPSSLMPSGSSQTSRFPFSNLSNNQPSLVPHSAPFLTKPTSSQRASSANVQRRVSTDENSSPSVAPSKYKIKIDPTTQKVRSIQATDGRVLRCSTSKADQFIFTDPAIRPDDQRFMRTDRVPDRASEMLHTLCERMRKLHQ
Turning to B1, the binding entry in assay [2] is “no binding”.

B2: SDS-22 (C. elegans leucine-rich repeat PP1 regulator) (protein, UniProt P45969 1-326)
chain: MSNDKSAEVVVLPRENDEESKEPVLKNQFDLSTFDIDSPEIDLTHTRADHIPDLTGFPKIEELRMRNNLLVSISPTISSLVTLTSLDLYENQLTEISHLESLVNLVSLDLSYNRIRQINGLDKLTKLETLYLVSNKIEKIENLEALTQLKLLELGDNRIKKIENIGHLVNLDELFIGKNKIRQLEGVETLQKLSVLSLPGNRIVKIENVEQLNNLKELYLSDQGLQDIHGVEPLTNLLLLDVANNEIKTFSGVERLESLNDFWANDNKVESFSEIEQLSKLKGLQTVYLERNPFYFNDTNQYRRKVMMTLTQVTQIDATTCRKPIE
Consider B2, for which the binding result in assay [2] is given as “no binding”.
